{"source": "patent US7094524B2", "about": "“Thermally development imaging materials having backside stabilizers” (Eastman Kodak Company, priority 2003, dated 2006)", "assay": "pH of 0.005 molar solution in 15% methanol/85% water", "assay_type": "physicochemical", "text": "TABLE I also includes vapor pressure (VP) and pKa values for the various backside stabilizers.", "data": [{"smiles": "C1CN=C2CCCN2C1", "note": "[AB-4, 1,5-diazabicyclo[4.3.0]non-5-ene]", "values": [{"measurement": "pH", "value": 11.7}]}]}
